From the supplement of paper PMC10849652
The list shows a part of the results.

Amino acid sequences for entries named in this document (tags omitted). A change or cut given only in a name is not applied to a line headed by its entry.
UniProt Q9Y6C9: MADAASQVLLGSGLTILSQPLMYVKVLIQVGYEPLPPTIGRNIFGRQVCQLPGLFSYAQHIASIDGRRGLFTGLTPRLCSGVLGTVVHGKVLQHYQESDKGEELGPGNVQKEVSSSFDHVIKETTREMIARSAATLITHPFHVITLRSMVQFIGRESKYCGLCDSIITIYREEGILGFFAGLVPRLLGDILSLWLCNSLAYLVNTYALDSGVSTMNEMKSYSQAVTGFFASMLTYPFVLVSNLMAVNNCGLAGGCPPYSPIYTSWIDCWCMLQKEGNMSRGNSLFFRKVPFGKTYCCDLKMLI
UniProt P08590, whole entry, looked up: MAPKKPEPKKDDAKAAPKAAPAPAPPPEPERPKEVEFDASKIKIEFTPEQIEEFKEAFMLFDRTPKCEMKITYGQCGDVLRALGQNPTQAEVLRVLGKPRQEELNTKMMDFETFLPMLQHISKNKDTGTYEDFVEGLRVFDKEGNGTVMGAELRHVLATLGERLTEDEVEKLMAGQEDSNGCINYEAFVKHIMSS
UniProt O94832: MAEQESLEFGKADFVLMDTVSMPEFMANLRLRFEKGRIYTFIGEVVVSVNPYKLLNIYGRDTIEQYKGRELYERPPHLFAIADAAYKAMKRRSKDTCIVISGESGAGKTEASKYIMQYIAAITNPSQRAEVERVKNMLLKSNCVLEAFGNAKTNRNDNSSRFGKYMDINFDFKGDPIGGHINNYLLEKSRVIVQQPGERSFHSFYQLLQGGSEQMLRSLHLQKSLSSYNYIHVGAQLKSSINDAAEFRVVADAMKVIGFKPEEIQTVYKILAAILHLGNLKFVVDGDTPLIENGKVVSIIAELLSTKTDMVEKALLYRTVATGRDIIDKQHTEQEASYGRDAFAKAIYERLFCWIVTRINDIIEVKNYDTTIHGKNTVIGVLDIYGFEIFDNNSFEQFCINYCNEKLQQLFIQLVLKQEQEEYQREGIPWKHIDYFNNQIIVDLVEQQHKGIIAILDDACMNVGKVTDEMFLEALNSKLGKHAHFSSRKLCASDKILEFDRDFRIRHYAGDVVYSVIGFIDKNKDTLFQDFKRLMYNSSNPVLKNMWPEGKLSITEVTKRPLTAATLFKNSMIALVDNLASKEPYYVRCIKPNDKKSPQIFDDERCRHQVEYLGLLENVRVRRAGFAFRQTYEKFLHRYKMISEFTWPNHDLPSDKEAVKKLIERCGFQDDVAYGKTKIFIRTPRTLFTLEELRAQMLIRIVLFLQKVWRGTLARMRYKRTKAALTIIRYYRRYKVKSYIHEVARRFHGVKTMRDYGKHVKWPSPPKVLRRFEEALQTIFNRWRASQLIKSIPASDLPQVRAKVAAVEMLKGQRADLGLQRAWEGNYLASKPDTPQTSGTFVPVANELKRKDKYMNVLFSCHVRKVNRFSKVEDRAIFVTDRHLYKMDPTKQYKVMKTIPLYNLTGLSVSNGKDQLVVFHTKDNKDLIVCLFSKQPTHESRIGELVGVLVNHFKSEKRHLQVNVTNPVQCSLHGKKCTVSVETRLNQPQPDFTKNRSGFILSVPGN
UniProt O75592: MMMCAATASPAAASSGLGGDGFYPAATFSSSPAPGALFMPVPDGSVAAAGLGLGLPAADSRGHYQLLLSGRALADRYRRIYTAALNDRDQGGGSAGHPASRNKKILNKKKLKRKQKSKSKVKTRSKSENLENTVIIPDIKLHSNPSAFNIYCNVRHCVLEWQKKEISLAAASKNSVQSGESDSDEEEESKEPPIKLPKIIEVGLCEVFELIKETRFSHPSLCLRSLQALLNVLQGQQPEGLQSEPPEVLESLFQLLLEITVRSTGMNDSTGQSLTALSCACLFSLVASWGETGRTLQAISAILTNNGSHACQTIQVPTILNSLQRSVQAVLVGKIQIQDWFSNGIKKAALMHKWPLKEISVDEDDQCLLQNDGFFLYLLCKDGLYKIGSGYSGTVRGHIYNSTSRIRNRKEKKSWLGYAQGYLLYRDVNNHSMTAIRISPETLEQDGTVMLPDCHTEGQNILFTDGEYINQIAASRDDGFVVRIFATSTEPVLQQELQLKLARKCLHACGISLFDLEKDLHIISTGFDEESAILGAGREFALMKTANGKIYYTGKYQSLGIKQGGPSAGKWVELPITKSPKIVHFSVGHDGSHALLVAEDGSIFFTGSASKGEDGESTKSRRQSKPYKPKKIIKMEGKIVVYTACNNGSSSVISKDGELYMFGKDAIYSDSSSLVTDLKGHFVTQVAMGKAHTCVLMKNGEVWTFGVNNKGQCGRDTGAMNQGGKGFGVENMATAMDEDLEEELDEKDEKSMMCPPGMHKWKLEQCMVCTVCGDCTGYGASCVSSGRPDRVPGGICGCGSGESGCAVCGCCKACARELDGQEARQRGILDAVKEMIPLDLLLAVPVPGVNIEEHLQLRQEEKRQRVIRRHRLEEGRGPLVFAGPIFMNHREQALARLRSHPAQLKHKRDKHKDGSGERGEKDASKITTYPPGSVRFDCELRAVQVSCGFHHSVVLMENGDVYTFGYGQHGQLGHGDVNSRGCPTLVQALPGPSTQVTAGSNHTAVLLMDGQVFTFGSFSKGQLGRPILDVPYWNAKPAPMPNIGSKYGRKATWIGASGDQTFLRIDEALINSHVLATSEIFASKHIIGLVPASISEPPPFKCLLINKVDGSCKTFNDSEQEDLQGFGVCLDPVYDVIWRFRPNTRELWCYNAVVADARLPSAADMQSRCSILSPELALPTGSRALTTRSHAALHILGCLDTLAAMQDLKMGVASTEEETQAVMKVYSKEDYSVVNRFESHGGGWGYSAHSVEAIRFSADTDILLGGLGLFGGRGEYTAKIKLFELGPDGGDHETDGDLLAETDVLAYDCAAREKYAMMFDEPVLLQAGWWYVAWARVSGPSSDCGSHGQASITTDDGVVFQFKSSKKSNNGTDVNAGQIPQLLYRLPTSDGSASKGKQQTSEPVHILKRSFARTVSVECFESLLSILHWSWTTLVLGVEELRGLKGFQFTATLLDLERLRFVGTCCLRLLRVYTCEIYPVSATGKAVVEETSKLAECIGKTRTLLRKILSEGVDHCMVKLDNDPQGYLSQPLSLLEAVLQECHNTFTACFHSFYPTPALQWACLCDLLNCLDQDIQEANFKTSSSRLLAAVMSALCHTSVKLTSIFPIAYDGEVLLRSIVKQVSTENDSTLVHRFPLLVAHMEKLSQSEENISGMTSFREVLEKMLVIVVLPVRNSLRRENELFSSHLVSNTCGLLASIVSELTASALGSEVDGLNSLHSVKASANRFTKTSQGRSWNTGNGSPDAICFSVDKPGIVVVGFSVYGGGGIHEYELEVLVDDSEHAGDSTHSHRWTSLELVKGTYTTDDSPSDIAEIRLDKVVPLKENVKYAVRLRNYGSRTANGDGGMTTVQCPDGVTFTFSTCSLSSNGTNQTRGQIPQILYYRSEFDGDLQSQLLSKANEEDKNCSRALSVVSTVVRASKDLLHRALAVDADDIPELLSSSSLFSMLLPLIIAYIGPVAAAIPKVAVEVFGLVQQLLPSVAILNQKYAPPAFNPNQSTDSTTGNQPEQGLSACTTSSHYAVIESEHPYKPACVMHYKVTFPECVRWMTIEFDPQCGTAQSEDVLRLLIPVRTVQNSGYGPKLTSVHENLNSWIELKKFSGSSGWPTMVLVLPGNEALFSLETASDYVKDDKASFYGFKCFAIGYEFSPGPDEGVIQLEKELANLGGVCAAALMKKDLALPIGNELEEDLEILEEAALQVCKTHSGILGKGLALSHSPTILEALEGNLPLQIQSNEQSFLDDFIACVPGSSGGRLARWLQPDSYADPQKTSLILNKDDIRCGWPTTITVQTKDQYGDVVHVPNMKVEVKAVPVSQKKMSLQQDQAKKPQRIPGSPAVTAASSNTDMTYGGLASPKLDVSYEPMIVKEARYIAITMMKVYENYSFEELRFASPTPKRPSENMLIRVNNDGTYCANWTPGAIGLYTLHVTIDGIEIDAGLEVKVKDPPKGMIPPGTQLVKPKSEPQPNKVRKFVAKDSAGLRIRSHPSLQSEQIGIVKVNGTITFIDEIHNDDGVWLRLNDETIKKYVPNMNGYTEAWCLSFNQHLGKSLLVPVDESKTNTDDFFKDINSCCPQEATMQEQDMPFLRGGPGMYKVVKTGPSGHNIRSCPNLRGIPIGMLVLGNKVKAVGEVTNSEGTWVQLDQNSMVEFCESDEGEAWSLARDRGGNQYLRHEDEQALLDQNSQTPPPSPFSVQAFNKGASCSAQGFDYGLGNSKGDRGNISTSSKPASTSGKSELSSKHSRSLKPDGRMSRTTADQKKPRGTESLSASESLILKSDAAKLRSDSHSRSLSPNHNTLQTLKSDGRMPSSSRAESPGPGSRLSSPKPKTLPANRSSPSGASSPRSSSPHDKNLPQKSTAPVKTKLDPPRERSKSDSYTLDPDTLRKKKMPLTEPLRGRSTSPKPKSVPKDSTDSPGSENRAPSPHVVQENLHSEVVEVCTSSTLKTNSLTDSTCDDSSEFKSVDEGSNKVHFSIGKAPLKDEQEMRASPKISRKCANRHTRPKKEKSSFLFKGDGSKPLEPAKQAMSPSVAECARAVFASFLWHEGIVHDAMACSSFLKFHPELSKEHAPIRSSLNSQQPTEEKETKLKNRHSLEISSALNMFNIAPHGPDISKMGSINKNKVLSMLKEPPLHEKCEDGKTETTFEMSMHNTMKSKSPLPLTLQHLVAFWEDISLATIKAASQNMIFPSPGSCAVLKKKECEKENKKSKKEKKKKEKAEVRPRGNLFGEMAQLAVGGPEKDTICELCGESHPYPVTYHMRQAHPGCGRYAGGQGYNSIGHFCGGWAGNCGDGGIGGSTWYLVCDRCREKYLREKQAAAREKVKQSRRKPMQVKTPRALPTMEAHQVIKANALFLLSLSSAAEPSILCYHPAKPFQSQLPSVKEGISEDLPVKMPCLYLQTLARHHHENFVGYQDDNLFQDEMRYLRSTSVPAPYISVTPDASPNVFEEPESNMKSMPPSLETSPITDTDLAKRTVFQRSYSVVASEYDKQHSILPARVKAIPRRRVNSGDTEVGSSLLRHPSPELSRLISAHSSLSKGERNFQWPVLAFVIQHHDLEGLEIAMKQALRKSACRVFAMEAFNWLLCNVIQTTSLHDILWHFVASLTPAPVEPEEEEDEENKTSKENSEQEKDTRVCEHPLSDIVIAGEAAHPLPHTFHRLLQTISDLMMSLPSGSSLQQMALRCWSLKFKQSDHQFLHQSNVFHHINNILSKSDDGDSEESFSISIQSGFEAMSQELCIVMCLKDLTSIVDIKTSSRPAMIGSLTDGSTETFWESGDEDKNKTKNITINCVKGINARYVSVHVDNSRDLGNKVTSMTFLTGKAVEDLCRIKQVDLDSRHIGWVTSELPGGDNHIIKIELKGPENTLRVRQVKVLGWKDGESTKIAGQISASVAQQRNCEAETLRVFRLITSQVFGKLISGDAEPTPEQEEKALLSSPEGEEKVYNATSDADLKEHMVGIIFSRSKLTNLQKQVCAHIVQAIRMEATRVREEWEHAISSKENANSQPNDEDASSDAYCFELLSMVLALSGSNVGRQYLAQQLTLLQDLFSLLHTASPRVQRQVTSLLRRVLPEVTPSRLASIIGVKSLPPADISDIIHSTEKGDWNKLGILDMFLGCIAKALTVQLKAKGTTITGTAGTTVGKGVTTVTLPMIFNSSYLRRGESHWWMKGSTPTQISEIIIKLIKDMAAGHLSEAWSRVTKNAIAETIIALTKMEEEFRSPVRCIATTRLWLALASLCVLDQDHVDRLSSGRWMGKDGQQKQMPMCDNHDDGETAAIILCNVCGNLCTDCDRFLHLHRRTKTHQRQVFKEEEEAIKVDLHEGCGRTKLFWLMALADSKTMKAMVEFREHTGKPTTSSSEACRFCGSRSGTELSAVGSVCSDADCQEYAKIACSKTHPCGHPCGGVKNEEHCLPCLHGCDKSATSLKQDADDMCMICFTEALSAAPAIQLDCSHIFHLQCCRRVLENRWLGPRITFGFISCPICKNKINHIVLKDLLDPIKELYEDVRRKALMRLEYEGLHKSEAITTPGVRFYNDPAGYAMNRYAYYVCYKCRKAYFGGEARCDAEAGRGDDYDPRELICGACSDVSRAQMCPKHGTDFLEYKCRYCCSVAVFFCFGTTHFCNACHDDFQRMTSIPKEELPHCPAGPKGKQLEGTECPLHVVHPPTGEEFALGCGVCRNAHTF
UniProt P00156: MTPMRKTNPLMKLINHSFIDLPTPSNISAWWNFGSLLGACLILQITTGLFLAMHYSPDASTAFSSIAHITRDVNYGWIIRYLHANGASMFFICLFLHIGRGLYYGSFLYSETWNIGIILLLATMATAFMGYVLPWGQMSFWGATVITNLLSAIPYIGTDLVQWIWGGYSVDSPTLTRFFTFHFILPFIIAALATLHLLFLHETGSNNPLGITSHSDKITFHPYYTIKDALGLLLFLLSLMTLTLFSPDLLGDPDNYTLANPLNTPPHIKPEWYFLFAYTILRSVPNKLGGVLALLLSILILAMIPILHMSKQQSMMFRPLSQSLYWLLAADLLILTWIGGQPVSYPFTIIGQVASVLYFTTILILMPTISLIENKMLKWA

The targets below were run with c1cn2cc(-c3ccc4cn[nH]c4c3)nc(Nc3ccc(N4CCOCC4)cc3)c2n1 [entospletinib] (assay: log2 fold change, soluble protein after heating vs DMSO (PISA); higher = thermal stabilisation; K562 cells, 10 uM, 30 min; active = over 0.2 and 3.5 SD of the protein, either way, in both replicates (recomputed)).
How it was run: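 For each measurement, 10 μM compound was applied for 30 min to K562 cells at 2×10^6 cells/mL. Aliquots were heated for 3 min across 48°C-58°C, pooled, and extracted in PBS with 0.5% NP-40 at 4°C; the supernatant after 21,000xg for 90 min was soluble protein. This was quantified by TMTpro 16plex LC-MS/MS with channel sums equalised, and thermal stability was reported relative to control samples from duplicates, on a log2 fold-change scale.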

log2 fold change, inactive:
MRPS28 (UniProt Q9Y2Q9) 0.041, MTCH2 (UniProt Q9Y6C9) 0.042, MYH14 isoform 2 (UniProt Q7Z406) -0.044, MYL3 (UniProt P08590) 0.091, MRPS18C (UniProt Q9Y3D5) 0.065, MUCL1 (UniProt Q96DR8) 0.094, MRRF (UniProt Q96E11) -0.097, MRPS30 (UniProt Q9NP92) -0.085, MYO1D (UniProt O94832) -0.024, MTO1 isoform 6 (UniProt Q9Y2Z2) 0.128, MTMR6 (UniProt Q9Y217) 0.113, MVD (UniProt P53602) -0.01, MRPS7 (UniProt Q9Y2R9) 0.003, MRPL58 (UniProt Q14197) 0.04, MYH3 (UniProt P11055) 0.286, MTMR12 (UniProt Q9C0I1) -0.001, MVK (UniProt Q03426) -0.015, MYH15 (UniProt Q9Y2K3) -0.033, MTM1 (UniProt Q13496) 0.042, MTFMT (UniProt Q96DP5) 0.091, MYCBP2 (UniProt O75592) 0.116, MRPS36 (UniProt P82909) 0.041, MTX1 (UniProt Q13505) 0.049, MT-CYB (UniProt P00156) 0.034, MRPS34 (UniProt P82930) 0.107, MT-CO1 (UniProt P00395) 0.073, MYL6 (UniProt G3V1V0) 0.122, MTX2 (UniProt O75431) 0.069, MYO18A (UniProt Q92614) -0.108, MTMR1 (UniProt Q13613) 0.128
